# PubChem BioAssay AID1508600 (Functional Genomics Laboratory (NCATS/FGL), 2020)
# In all, about 53,000 sequences went through this assay and about 3,700 (7%) were called active.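 How the source made its calls: active means gene knockdowns whose robust z-score for IL-1 alpha signal is at least 2 or at most -2, so actives lie on both sides; inactive means the rest.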 The list shows a part of the results.
# Test: Components of the Cytosolic LPS Sensing Pathway: Gene Identification via Genome-wide siRNA Screen;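 further: robust z of the log signal after scaling to non-targeting control siRNA wells of the plate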
# Conditions: RAW264.7 macrophages, IL-1a HTRF, actives lie on both sides, screened at 100 nM (by protocol), cells primed 5 h with Pam3CSK4 first
# How it was run: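 RAW264.7; siRNA 100 nM final, RNAiMAX, 48h 37 degrees C; Pam3CSK4 5 h; LipidA + TransIT-TKO 24 h; IL-1a HTRF; CellTiter-Glo viability; robust z vs negative-control median.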
row,Sequence,z-score
1,GGAAAAUGUAAACAAGUACTT against Xpo5,inactive: -0.595
2,GUCAUGCAGCUCCUUUGGUTT against Olfr635,inactive: 0.0979
3,GGCCAGACAUGUUGAAGAATT against Ssna1,active: -2.42
4,GCCUUCCUAAAGGAUUACUTT against Ndst1,inactive: 1.34
5,CGAAGGAGUCAAAACUGGGTT against Klk1b8,inactive: -1.79
6,GGUUUUGACUCUGUGAUAUTT against Sh3kbp1,inactive: -0.505
7,GGAAGUCACGCUGAACAAATT against Cenps,inactive: 0.754
8,GAUGGUCCAGAGCGACUUCTT against Pou3f3,active: 2.14
9,GCCACUCAACAUUAAAUCCTT against Tbc1d8,inactive: 0.0844
10,GGAGCAAAGUCUAAUAGCATT against Ercc1,inactive: 1.03
11,GGAAAUUCUAGUCAAAUGCTT against Sp7,inactive: -0.188
12,CCUCAAAGUGUUAGGAUGATT against Slc35e4,inactive: 1.56
13,GCAGGCUAACCACAUUUGCTT against Zic4,inactive: 1.25
14,GGGACACUACCCUGAUGAUTT against Vmn1r205,active: -2.05
15,GGACAUGACAUUCCUAUCCTT against Trav7d-6,inactive: -0.759
16,GCUACAGCCGAGAGAAAUGTT against Tspan14,inactive: 0.0481
17,GGUAGAAAGAUUGAGAGUUTT against Gm11961,inactive: 0.765
18,GGAGUGUUUGAGAAAUACCTT against Pnpla7,active: 3.32
19,GGUUGGAUUGGGAUUUGAATT against Vdac3,inactive: -1.24
20,CCUACGAGUUUUGCAUUUATT against Slc25a51,active: -2.46
21,GGCCACUUGAGAACAUUCGTT against Nop10,inactive: 0.331
22,GCUCCAGAUGGGUAGAUCUTT against Ptrh1,inactive: -1.8

row,Sequence,z-score
1,GCGACACGUCUCCAGAUGATT against Bloc1s6,inactive: -0.701
2,CCUUAUGGGUAGAAAACCUTT against Mtmr2,inactive: -0.561
3,GCGGUUUGUCUUCAACAAGTT against Il1b,inactive: 0.22
4,CCUACCUUCGAAUCUCAGUTT against Dusp15,inactive: -0.964
5,CCUCUAGAUAGUGUUAGAGTT against Smarcd1,active: -2.19
6,CCGUCCUUCUGAGAAAUAATT against Tfip11,inactive: 0.108
7,GCUCAGUUGUUUUUCAUUCTT against Olfr782,inactive: -0.556
8,GGCAACUUUGAAGUCUUGATT against Dntt,inactive: -0.488
9,GCCUAUACAUCGGACAAUCTT against Apcs,inactive: 0.623
10,GGAAUGUUCUGUCGCUAUGTT against Nrp1,inactive: 0.966
11,GCUACUCUACUGGUUCUUATT against Pltp,inactive: -0.805
12,GGAAAGGCUCGGCUUUUGATT against Ormdl2,inactive: -0.0151
13,GCAGGAGACGCAAUAGAAATT against Dand5,inactive: 1.26
14,GCCUAAGGGAGACUCUUUGTT against Ano7,active: -2.02
15,GAUGCUCAUCAAUAUCGUATT against Olfr1109,inactive: -0.651
16,GCCUUUCGUGGUGUCAGCUTT against Chst2,inactive: 0.304
17,GGAAGCACAUCAAUAGGGCTT against Olfr828,inactive: 0.567
18,GGAAGUCACCAUCAACCAGTT against Krt4,inactive: 0.168
19,GUCCUGCACUUUUUGGCUCTT against Olfr1223,inactive: 1.12
20,GGAACUUUCUGAAGAAACATT against Oasl2,inactive: -1.46
21,GGGAAGAAAAGAAGUAUGUTT against Atp10a,inactive: 0.0464
22,GGCAAAUUAGCUAGUAUCATT against Rai2,active: -2.2

row,Sequence,z-score
1,GGCGGUUUUAGUGAAUAACTT against Golm1,active: 2.17
2,GGAACACUGGAACUAUUUUTT against Sipa1l1,inactive: 0.516
3,CGGCUGAUGCUUGACCUAATT against Plppr2,inactive: -1.33
4,GGAAGAGGCUGAAGUAAAATT against Brd8,inactive: 0.684
5,GGUAAUCUUUCAGUUACCCTT against Six4,inactive: -0.162
6,GGUGAUGUGGAAGCAUUUGTT against Adrm1,inactive: 0.254
7,CCUUCUCUGCCUCGAUGAUTT against Cox14,inactive: -1.23
8,GGGUUUGCAUCACUUUGUUTT against Olfr1245,inactive: -0.961
9,GGAUGAUUUCCAGAGAGUATT against Rdh5,inactive: -0.398
10,CCAUUGGUACUCUUUCCAATT against Megf10,inactive: 0.171
11,GGAAUUUCGGGACAAAAUUTT against Olfr654,inactive: -0.171
12,GGAAGUGAUUCUGCUAUGUTT against Cenpn,inactive: -1.69
13,GGAAGAAUCGCUGCUACCGTT against Mrpl20,inactive: 1.06
14,GGAAACGAUGCAAGAACCCTT against Zp3r,inactive: 0.625
15,GGAAAGAAAAACGUAGGCGTT against 4933402J07Rik,inactive: -1.16
16,GGCCUGGCAUGAACAUAAATT against Atf5,inactive: -1.36
17,GGAAAGCAGACUCAAUGAGTT against Fibin,inactive: 0.0656
18,CGUUCAAGCUCAAAGAGCATT against Slirp,inactive: 0.511
19,GGUGGAAUGAAAUAUGAAGTT against Ptp4a1,inactive: 0.741
20,AGAGAGAAAUGGUAGCGUATT against Oog2,inactive: -1.18
21,GGAACACAGGUUAAGAAGGTT against Eif2b5,inactive: -0.21
22,GCUAACUGAUGCUAAAGGATT against Dnajc15,inactive: 0.825

row,Sequence,z-score
1,GCUACUACCUGGCAGUUAGTT against Cyp4b1,inactive: -0.00582
2,GGAACAAGGAUGCUCAUACTT against Ankmy1,inactive: -1.38
3,GGUAUGAGAUUACCUUCACTT against 1700037H04Rik,inactive: -1.16
4,GCUAUACUAUUGAAGAAAGTT against Tdp2,inactive: -0.431
5,GGAAACAAGAAGAACGAUGTT against Camk2a,inactive: 1.47
6,GGCCAAAGGAUUUCUUAUCTT against Ndufa6,inactive: 0.28
7,GGAUGUUUCUAACUCCUUUTT against N4bp3,inactive: 1.46
8,CCUUGGGACAAGCAUAUAUTT against Psg25,inactive: 0.901
9,CCAUCUGAUUAAUGGCUUCTT against Tm7sf2,inactive: 1.03
10,GGCUGUCUUAUUAAAGCUATT against A730013G03Rik,active: -2.19
11,GGUGAUCAUGCUAACCUUUTT against Pcolce,inactive: 0.436
12,GGCAGAAGUCAUCAACCAATT against Bcl2l12,inactive: -0.0414
13,GGCGUAUUUGUCAUUUCUUTT against Dis3l,inactive: 0.013
14,CGAUGAAUCAGUGAGGCUGTT against Wdr18,inactive: 0.139
15,GGUCUUAGAAGAUUUUUCUTT against Adam21,inactive: 1.1
16,GCUUGGAUUGGUAACCUGUTT against Olfr167,inactive: 0.939
17,CCUGAAGAAAGAAUCCCUATT against Nobox,inactive: 0.241
18,GGCCUGGAGGAGCUAUAUUTT against Nrl,inactive: 1.8
19,GGCAUCCAGACAAGUGAUGTT against Zer1,inactive: 0.699
20,GCUGUUGUUUGCUAGCAAATT against Lipa,inactive: 0.973
21,CCACAAAUACAAAUCUACCTT against Bloc1s3,inactive: 0.989
22,GGAAGAACAACGAAGAAACTT against Mtarc2,inactive: -0.369

row,Sequence,z-score
1,CCUUCAGAAAGUUGUUGAATT against Commd5,inactive: 0.635
2,GGGAGAAGUAAGUGUUAUCTT against Npy2r,active: 3.86
3,UAAAUACUUACCAGCUGGATT against Olfr1306,inactive: 1.06
4,GCAAAAUCUCAAAUUGCUCTT against Mdh1,inactive: 1.91
5,GGAAAGAAGAACCAAGCUCTT against Med6,inactive: -1.01
6,GGUUCCAGAUGAGAUGAUATT against Ubr7,inactive: -1.8
7,GGUACGCCCUCAUAUGUCATT against Lnpk,inactive: 0.729
8,GGUGCCAUUGAUUCUGUAGTT against Smim10l2a,inactive: -0.807
9,GCCAACUUUGGACCAUUAUTT against Otulin,inactive: 0.0891
10,GCGAUUAAUGGCAUAGUUUTT against Sar1a,inactive: -0.773
11,GGAUUAGACUGUCUUCAGCTT against Rnf144a,inactive: -0.496
12,GGAGAGGAAUCAAGUGGUGTT against Lig1,inactive: -1.04
13,GCCUCAAGUAAAGUGGCUGTT against Furin,inactive: 0.487
14,CCGUUCACUAAUAAAAGGUTT against BC052040,inactive: 0.58
15,GCCUGUGUAUUACUUUUUUTT against Sned1,inactive: -0.786
16,GGAUUGGCAAGCAGCUAACTT against Dnase2a,active: -2.08
17,GCAAUAAUUUCUCACCUAGTT against Tcf3,inactive: -1.48
18,CCGGUAAUGAGUUCAAGUGTT against Arsa,inactive: 1.12
19,CGAACUAGCAAUGUUUACUTT against Ptpn13,inactive: 0.982

# At a glance, some entries already given.
row,Sequence,z-score
14,CGAUGAAUCAGUGAGGCUGTT against Wdr18,inactive: 0.139
15,GGUCUUAGAAGAUUUUUCUTT against Adam21,inactive: 1.1
16,GCUUGGAUUGGUAACCUGUTT against Olfr167,inactive: 0.939
17,CCUGAAGAAAGAAUCCCUATT against Nobox,inactive: 0.241
18,GGCCUGGAGGAGCUAUAUUTT against Nrl,inactive: 1.8
19,GGCAUCCAGACAAGUGAUGTT against Zer1,inactive: 0.699
20,GCUGUUGUUUGCUAGCAAATT against Lipa,inactive: 0.973
21,CCACAAAUACAAAUCUACCTT against Bloc1s3,inactive: 0.989
22,GGAAGAACAACGAAGAAACTT against Mtarc2,inactive: -0.369
1,CCUUCAGAAAGUUGUUGAATT against Commd5,inactive: 0.635
2,GGGAGAAGUAAGUGUUAUCTT against Npy2r,active: 3.86
3,UAAAUACUUACCAGCUGGATT against Olfr1306,inactive: 1.06
4,GCAAAAUCUCAAAUUGCUCTT against Mdh1,inactive: 1.91
5,GGAAAGAAGAACCAAGCUCTT against Med6,inactive: -1.01
6,GGUUCCAGAUGAGAUGAUATT against Ubr7,inactive: -1.8
7,GGUACGCCCUCAUAUGUCATT against Lnpk,inactive: 0.729
8,GGUGCCAUUGAUUCUGUAGTT against Smim10l2a,inactive: -0.807
9,GCCAACUUUGGACCAUUAUTT against Otulin,inactive: 0.0891
10,GCGAUUAAUGGCAUAGUUUTT against Sar1a,inactive: -0.773
11,GGAUUAGACUGUCUUCAGCTT against Rnf144a,inactive: -0.496
12,GGAGAGGAAUCAAGUGGUGTT against Lig1,inactive: -1.04
13,GCCUCAAGUAAAGUGGCUGTT against Furin,inactive: 0.487
14,CCGUUCACUAAUAAAAGGUTT against BC052040,inactive: 0.58
15,GCCUGUGUAUUACUUUUUUTT against Sned1,inactive: -0.786
16,GGAUUGGCAAGCAGCUAACTT against Dnase2a,active: -2.08
17,GCAAUAAUUUCUCACCUAGTT against Tcf3,inactive: -1.48
